Data: PubChem BioAssay AID720535 (National Center for Advancing Translational Sciences (NCATS), 2013)
In all, about 1,600 compounds went through this assay and about 420 (26%) were called active. The inconclusive results got no clear call from the source; some entries with a clear call stand among them for comparison. Calls follow the shape of the dose curve; as a rule, active = well fitted inhibition curve with a large enough effect; inconclusive = small, poorly fitted or top-dose-only effect; inactive = flat fitted curve, though single readings scatter. Potencies beside an inconclusive call are fits to weak or partial responses and may not hold up.

Experiment: qHTS for Inhibitors of TGF-b: Cytotox Counterscreen for Cherry Picks; also: nearly all actives have a fitted effect of over 70% in size
Conditions: HepG2 CAGA-GFP viability, ATP luminescence, 18 h, cells stimulated with TGF-beta, 500 pg/mL; series mostly up to 46.1 µM
Excerpt: TGF-b is a main component in the TGF-b signaling pathway which plays diverse roles in cellular and development pathways. TGF-b is mediated by transcription factors called "Smads". Although the Smad-dependent pathway is the primary canonical TGF-b signaling mode, TGF-b1 can also activate alternative signaling pathways, including those involving MAPK (ERK, JNK and p38). This interaction may mediate or enhance Smad-dependent responses, or can exert Smad-independent effects. The complexity of this signaling cascade allows the TGF-b superfamily to perform unique, overlapping or redundant functions. We believe that targeting the TGF-beta pathway at the Smad-transcription factor level may eliminate the consequences of disrupting the entire pathway and offer specificity without affecting other signaling pathways. Smad3 is the primary transducer of TGF-b's signals and Smad3 regulates many functions attributed to TGF-b signaling. We hypothesize that Smad3 inhibitors will selectively eliminate Smad3-specific TGF-beta signals without undesired off-target effects. We aim to identify Smad3-small molecule antagonists using a quantitative high throughput screening (qHTS) approach. A high-throughput assay was developed to screen the NIH Molecular Libraries Small Molecule Repository (MLSMR). This is a cell based assay, where TGF-b is tagged with GFP. This is a counterscreen that evaluates the cytotoxicity of the compounds that were identified as hits in the primary cell-based screen (AID 588855). MH087449NIH Chemical Genomics Center [NCGC] NIH Molecular Libraries Probe Centers Network [MLPCN] MLPCN Grant: MH087449 Assay Submitter (PI): Sushil Rane, National Institute of Diabetes and Kidney Diseases
Suspensions of trypsinized HEPG2 CAGA-GFP cells were dispensed into white, tissue culture-treated, solid 1536-well plates at 5uL/well (1000 cells/well final concentration) in DMEM medium supplemented with 1% FBS. Plates were incubated at 37 degrees C for 2 hours, after which 23 nL of compounds or DMSO were delivered to each well using a pin tool. One uL of recombinant TGF-beta in DMEM (1% FBS) was then dispensed (500 pg/mL final concentration), and plates were incubated at 37 degrees C for 18 hours. Two uL of CellTiter Glo (Promega), a luminescence-based viability reagent, was dispensed, followed by a 10 minute room temperature incubation. The plates were then measured on a PerkinElmer ViewLux plate reader for luminescence (clear filter) using a 5 second exposure. The %Activity was determined from the corrected luminescence values. Wells containing media only (no cells) were used to normalize %Activity of identified toxic compounds; media-only wells corresponded to 100%Activity (complete cell-killing), while DMSO-dosed cell controls were used to normalize 0%Activity (no toxicity). Concentration-response curves were fitted to the signals arising from the resulting luminescence. The concentration-effect curves were then classified based on curve quality (r2), response magnitude and degree of measured activity, and compounds were subsequently categorized based on their curve class.
Potency is read from the fitted curve at half-maximal effect.

| Compound | Potency |
| --- | --- |
| COc1ccc(C(c2nnnn2C2CCCCC2)N2CCC3(CC2)C(=O)NCN3c2ccccc2)cc1 (stereo unspecified) | inactive |
| Fc1cccc(-c2ccc3c(c2)CN(C(=S)NCCc2ccccc2)Cc2cnnn2-3)c1 | inactive |
| O=C1NCN(c2ccccc2)C12CCN(C(CCc1ccccc1)c1nnnn1Cc1ccccc1)CC2 (stereo unspecified) | inconclusive: 29.1 µM [inhibitor, single point] |
| CCCCn1nnnc1C(c1cccc2ccccc12)N1CCC2(CC1)C(=O)NCN2c1ccccc1 (stereo unspecified) | inconclusive: 20.6 µM [inhibitor, single point] |
| CCCCn1c(N)c(C(=O)NCc2cccs2)c2nc3ccccc3nc21 | inactive |
| NC1=C(Br)C(=O)c2ccccc2C1=O | active: 8.2 µM |
| COc1ccc(-n2nnnc2C(c2ccccc2)N2CCC(n3c(=O)[nH]c4ccccc43)CC2)cc1 (stereo unspecified) | inconclusive: 16.4 µM [inhibitor, single point] |
| O=c1[nH]c2ccccc2n1C1CCN(C(c2cccc3ccccc23)c2nnnn2Cc2ccccc2)CC1 (stereo unspecified) | inactive |
| O=C1NCN(c2ccccc2)C12CCN(C(c1ccccc1)c1nnnn1C1CCCC1)CC2 (stereo unspecified) | inactive |
| COC1CC(C)C(OC)c2cc(O)cc(c2O)NC(=O)C(C)=CC=CC(C)C(OC(N)=O)C(C)=CC(C)C1OC (stereo unspecified) | active: 5.17 µM |
| COc1ccc(CN2Cc3cc(-c4cccc(F)c4)ccc3-n3nncc3C2)cc1 | inconclusive: 9.2 µM [inhibitor, partial curve, poor fit] |
| O=C1NCN(c2ccccc2)C12CCN(C(c1cc3ccccc3o1)c1nnnn1Cc1ccccc1)CC2 (stereo unspecified) | inactive |
| Nc1nc(F)nc2c1ncn2[C@@H]1O[C@H](CO)[C@@H](O)[C@H]1O | active: 0.461 µM |
| S=C(NCCc1ccccc1)N1Cc2cc(N3CCCCC3)ccc2-n2nncc2C1 | inactive |
| O=C1NCN(c2ccccc2)C12CCN(C(c1cc3ccccc3o1)c1nnnn1C1CCCCC1)CC2 (stereo unspecified) | inconclusive: 25.9 µM [inhibitor, single point] |
| NC(=Nc1ccccc1)Nc1ccccc1 | inconclusive: 18.4 µM [inhibitor, single point] |

In the list so far, these contain a halogen:

| Compound | Potency |
| --- | --- |
| Fc1cccc(-c2ccc3c(c2)CN(C(=S)NCCc2ccccc2)Cc2cnnn2-3)c1 | inactive |
| NC1=C(Br)C(=O)c2ccccc2C1=O | active: 8.2 µM |
| COc1ccc(CN2Cc3cc(-c4cccc(F)c4)ccc3-n3nncc3C2)cc1 | inconclusive: 9.2 µM [inhibitor, partial curve, poor fit] |
| Nc1nc(F)nc2c1ncn2[C@@H]1O[C@H](CO)[C@@H](O)[C@H]1O | active: 0.461 µM |
